{"source": "PubChem BioAssay AID1224828 | NIAID – 2016", "test": "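Regulators linking TLR4 signalling to p65 nuclear translocation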 (primary screen)", "system": "mouse RAW264.7 G9 macrophage reporter cells (GFP-p65, Tnf promoter-mCherry)", "reagents": "siRNA pool against mouse genes, 100 nM", "duration": "2 days siRNA transfection, then 40 min LPS before fixation", "treatment": "LPS (Salmonella minnesota R595) at 10 ng/ml", "read-out": "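Microscopy ratio of nuclear to perinuclear-ring GFP-p65 signal, scaled to the plate median; gene score is the average of two replicate robust z-scores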", "scale": "p65 translocation robust z-score: higher = more nuclear NF-kappaB p65 after LPS than the plate median; nuclear/cytoplasmic p65 ratio: higher = more nuclear NF-kappaB p65", "rule for the call": "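Active if robust z is above 3.3 (negative regulators) or below -1.56, the Tlr4 control median (positive regulators); activity score 50 or more; control wells not called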", "meaning of the calls": "active = hit (p65 shift raised or lowered); inactive = no clear change", "note": "Here is a random part of about 17,000 reagents tested. 762 of them (4.5%) were called active. 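Active calls include both raised and lowered p65 entry, mostly lowered; wells with fewer than 50 cells lack a z-score.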 Raw values are not corrected between plates. Unmarked entries are inactive."}
{"gene": "Fbxo3 (F-box protein 3)", "p65 translocation robust z-score": 0.14, "nuclear/cytoplasmic p65 ratio, rep 1": 1.45, "nuclear/cytoplasmic p65 ratio, rep 2": 1.41, "low cell count flag": "enough cells to score"}
{"gene": "Hoxb4 (homeobox B4)", "p65 translocation robust z-score": -0.81, "nuclear/cytoplasmic p65 ratio, rep 1": 1.4, "nuclear/cytoplasmic p65 ratio, rep 2": 1.44, "low cell count flag": "enough cells to score"}
{"gene": "Adam18 (a disintegrin and metallopeptidase domain 18)", "p65 translocation robust z-score": -1.18, "nuclear/cytoplasmic p65 ratio, rep 1": 1.51, "nuclear/cytoplasmic p65 ratio, rep 2": 1.38, "low cell count flag": "enough cells to score"}
{"gene": "Khdc3 (KH domain containing 3, subcortical maternal complex member)", "nuclear/cytoplasmic p65 ratio, rep 1": 1.54, "nuclear/cytoplasmic p65 ratio, rep 2": 1.24, "low cell count flag": "fewer than 50 cells per well; well left out of scoring"}
{"gene": "AW551984 (expressed sequence AW551984)", "p65 translocation robust z-score": 0.43, "nuclear/cytoplasmic p65 ratio, rep 1": 1.69, "nuclear/cytoplasmic p65 ratio, rep 2": 1.55, "low cell count flag": "enough cells to score"}
{"gene": "Ccm2l (cerebral cavernous malformation 2-like)", "p65 translocation robust z-score": -0.41, "nuclear/cytoplasmic p65 ratio, rep 1": 1.59, "nuclear/cytoplasmic p65 ratio, rep 2": 1.69, "low cell count flag": "enough cells to score"}
{"gene": "BC023105 (cDNA sequence BC023105)", "p65 translocation robust z-score": 0.82, "nuclear/cytoplasmic p65 ratio, rep 1": 1.71, "nuclear/cytoplasmic p65 ratio, rep 2": 1.97, "low cell count flag": "enough cells to score"}
{"gene": "Slc25a35", "nuclear/cytoplasmic p65 ratio, rep 1": 1.41, "nuclear/cytoplasmic p65 ratio, rep 2": 1.58, "low cell count flag": "fewer than 50 cells per well; well left out of scoring"}

2 entries already listed, sorted by “nuclear/cytoplasmic p65 ratio, rep 2”, low to high.
{"gene": "Slc25a35", "nuclear/cytoplasmic p65 ratio, rep 1": 1.41, "nuclear/cytoplasmic p65 ratio, rep 2": 1.58, "low cell count flag": "fewer than 50 cells per well; well left out of scoring"}
{"gene": "BC023105 (cDNA sequence BC023105)", "p65 translocation robust z-score": 0.82, "nuclear/cytoplasmic p65 ratio, rep 1": 1.71, "nuclear/cytoplasmic p65 ratio, rep 2": 1.97, "low cell count flag": "enough cells to score"}

Further records follow:
{"gene": "Parg (poly (ADP-ribose) glycohydrolase)", "p65 translocation robust z-score": 0.43, "nuclear/cytoplasmic p65 ratio, rep 1": 1.61, "nuclear/cytoplasmic p65 ratio, rep 2": 1.29, "low cell count flag": "enough cells to score"}
{"gene": "Tmem108 (transmembrane protein 108)", "p65 translocation robust z-score": -0.36, "nuclear/cytoplasmic p65 ratio, rep 1": 1.44, "nuclear/cytoplasmic p65 ratio, rep 2": 1.57, "low cell count flag": "enough cells to score"}
{"gene": "Sun1 (Sad1 and UNC84 domain containing 1)", "nuclear/cytoplasmic p65 ratio, rep 1": 1.36, "nuclear/cytoplasmic p65 ratio, rep 2": 1.09, "low cell count flag": "fewer than 50 cells per well; well left out of scoring"}
{"gene": "Tead2 (TEA domain family member 2)", "nuclear/cytoplasmic p65 ratio, rep 1": 1.18, "nuclear/cytoplasmic p65 ratio, rep 2": 1.1, "low cell count flag": "fewer than 50 cells per well; well left out of scoring"}
